# Some results were stated once for a whole list of compounds, not compound by compound.
# Protein sequences, listed by entry. Tags and fused reporters are not part of them.
# UniProt Q02750, whole entry S218D/S222D: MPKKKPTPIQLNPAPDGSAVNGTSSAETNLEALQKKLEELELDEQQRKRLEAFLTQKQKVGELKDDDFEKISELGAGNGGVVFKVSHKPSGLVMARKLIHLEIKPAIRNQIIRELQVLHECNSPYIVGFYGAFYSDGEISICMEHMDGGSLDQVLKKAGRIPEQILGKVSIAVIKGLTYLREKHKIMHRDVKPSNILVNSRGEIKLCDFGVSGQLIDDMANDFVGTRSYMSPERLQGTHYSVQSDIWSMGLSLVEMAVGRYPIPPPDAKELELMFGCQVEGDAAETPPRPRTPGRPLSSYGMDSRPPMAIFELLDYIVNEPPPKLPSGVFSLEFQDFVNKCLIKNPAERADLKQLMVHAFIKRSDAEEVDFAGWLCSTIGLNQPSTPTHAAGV
# UniProt Q02750, whole entry, stated change not applied: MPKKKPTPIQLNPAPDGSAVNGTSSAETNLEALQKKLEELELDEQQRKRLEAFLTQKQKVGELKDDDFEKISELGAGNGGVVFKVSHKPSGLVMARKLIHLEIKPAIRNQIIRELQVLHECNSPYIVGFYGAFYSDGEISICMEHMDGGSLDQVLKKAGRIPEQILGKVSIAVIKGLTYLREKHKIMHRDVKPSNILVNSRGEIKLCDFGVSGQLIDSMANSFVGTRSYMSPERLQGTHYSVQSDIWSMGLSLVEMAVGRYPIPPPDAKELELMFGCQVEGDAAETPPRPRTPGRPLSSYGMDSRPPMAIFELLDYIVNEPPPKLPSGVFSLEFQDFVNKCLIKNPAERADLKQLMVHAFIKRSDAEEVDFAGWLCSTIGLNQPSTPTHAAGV
# Target: Constitutively activated human mutant MEK1 (Homo sapiens, UniProt Q02750)
# Experiment: MEK activity assay (Example 1a or 1b), HTRF
# Type: biochemical
# Settings: assay described in either Example 1a (62.5 nM MEK1) or 1b (15 nM MEK1); 50 μM ATP, GST-ERK1 substrate
row,SMILES,IC50 [µM]
1,COc1ccc(Cn2c(C(N)=O)c(Nc3ccc(I)cc3F)c3cnccc32)cc1 [Example 17],< 5
2,O=C(NOCCO)c1c(Nc2ccc(I)cc2F)c2cnccc2n1CCCO [Example 41],< 5
3,Cn1c(C(=O)NO)c(Nc2ccc(I)cc2F)c2cnccc21 [Example 13],< 5
4,O=C(c1[nH]c2c(F)cncc2c1Nc1ccc(I)cc1F)N1CC(O)CO1 (stereo not shown) [Example 53],< 5
5,COc1ccc(Cn2c(C(=O)NOCCO)c(Nc3ccc(I)cc3F)c3cnccc32)cc1 [Example 8],< 5
6,"O=C(NOCCO)c1c(Nc2ccc(I)cc2F)c2cnccc2n1CCO [Example 19, 3-(2-Fluoro-4-iodo-phenylamino)-1-(2-hydroxy-ethyl)-1H-pyrrolo[3,2-c]pyridine-2-carboxylic acid (2-hydroxy-ethoxy)-amide]",< 5
7,O=C(NOCCO)c1c(Nc2ccc(I)cc2F)c2cnccc2n1Cc1ccncc1 [Example 25],< 5
8,CN(C)C(=O)c1cccc(Cn2c(C(=O)NOCCO)c(Nc3ccc(I)cc3F)c3cnccc32)c1 [Example 45],< 5
9,"O=C(NOCCO)c1c(Nc2ccc(I)cc2F)c2cnccc2n1C1CC1 [Example 61, 1-Cyclopropyl-3-(2-fluoro-4-iodo-phenylamino)-1H-pyrrolo[3,2-c]pyridine-2-carboxylic acid (2-hydroxy-ethoxy)-amide]",< 5
10,Cn1c(C(=O)NOC2CCNCC2)c(Nc2ccc(I)cc2F)c2cnccc21 [Example 14],< 5
11,"O=C(c1[nH]c2ccncc2c1Nc1ccc(I)cc1F)N1C[C@H](O)C[C@H]1CO [Example 69, [3-(2-Fluoro-4-iodo-phenylamino)-1H-pyrrolo[3,2-c]pyridin-2-yl]-((2S,4R)-4-hydroxy-2-hydroxymethyl-pyrrolidin-1-yl)-methanone]",< 5
12,O=C(NOCCO)c1c(Nc2ccc(I)cc2F)c2cnccc2n1CCc1ccccc1 [Example 31],< 5
13,CSc1ccc(Nc2c(C(=O)NOCCO)n(C)c3ccncc23)c(Cl)c1 [Example 55],< 5
14,N#Cc1ccc(Cn2c(C(=O)NOCCO)c(Nc3ccc(I)cc3F)c3cnccc32)s1 [Example 46],< 5
15,C[C@H](O)CONC(=O)c1c(Nc2ccc(I)cc2F)c2cncc(F)c2n1C [Example 54],< 5
16,"CSc1ccc(Nc2c(C(=O)NOC(C)(C)CO)[nH]c3ccncc23)c(F)c1 [Example 59, 3-(2-Fluoro-4-methylsulfanyl-phenylamino)-1H-pyrrolo[3,2-c]pyridine-2-carboxylic acid (2-hydroxy-1,1-dimethyl-ethoxy)-amide semiformate]",< 5
17,"O=C(c1[nH]c2ccncc2c1Nc1ccc(I)cc1F)N1CC[C@@H](O)C1 [Example 68, [3-(2-Fluoro-4-iodo-phenylamino)-1H-pyrrolo[3,2-c]pyridin-2-yl]-((R)-3-hydroxy-pyrrolidin-1-yl)-methanone]",< 5
18,"Cn1c(C(=O)NOCCO)c(Nc2ccc(I)cc2F)c2cnccc21 [Example 6, 3-(2-Fluoro-4-iodo-phenylamino)-1-methyl-1H-pyrrolo[3,2-c]pyridine-2-carboxylic acid (2-hydroxy-ethoxy)-amide]",< 5
19,"CC(C)c1ccc(Nc2c(C(=O)NOCCO)n(C)c3ccncc23)c(Cl)c1 [Example 71, 3-(2-Chloro-4-isopropyl-phenylamino)-1-methyl-1H-pyrrolo[3,2-c]pyridine-2-carboxylic acid (2-hydroxy-ethoxy)-amide]",< 5
20,O=C(NOCCO)c1[nH]c2ccncc2c1Nc1ccc(I)cc1F [Example 10],< 5

row,SMILES,IC50 [µM]
1,CCn1c(C(=O)NOCCO)c(Nc2ccc(I)cc2F)c2cnccc21 [Example 11],< 5
2,CC(C)(C)ONC(=O)c1[nH]c2ccncc2c1Nc1ccc(I)cc1F [Example 40],< 5
3,O=C(NOCCO)c1[nH]c2c(F)cncc2c1Nc1ccc(I)cc1F [Example 49],< 5
4,COCCn1c(C(=O)NOCCO)c(Nc2ccc(I)cc2F)c2cnccc21 [Example 7],< 5
5,"C#CCn1c(C(=O)NOCCO)c(Nc2ccc(I)cc2F)c2cnccc21 [Example 64, 3-(2-Fluoro-4-iodo-phenylamino)-1-prop-2-ynyl-1H-pyrrolo[3,2-c]pyridine-2-carboxylic acid (2-hydroxy-ethoxy)-amide]",< 5
6,O=C(NOCC1CC1)c1[nH]c2ccncc2c1Nc1ccc(I)cc1F [Example 38],< 5
7,O=C(NOCCO)c1c(Nc2ccc(I)cc2F)c2cnccc2n1Cc1ccccc1F [Example 27],< 5
8,Cn1c(C(=O)NOC2CCOCC2)c(Nc2ccc(I)cc2F)c2cnccc21 [Example 12],< 5
9,"Cn1c(C(=O)NOCCO)c(Nc2ccc(I)cc2F)c2nnccc21 [Example 60, 7-(2-Fluoro-4-iodo-phenylamino)-5-methyl-5H-pyrrolo[3,2-c]pyridazine-6-carboxylic acid (2-hydroxy-ethoxy)-amide]",< 5
10,O=C(NOCCO)c1c(Nc2ccc(I)cc2F)c2cnccc2n1Cc1ccc(C(F)(F)F)cc1 [Example 43],< 5
11,O=C(NOCCO)c1c(Nc2ccc(I)cc2F)c2cnccc2n1Cc1ccccc1 [Example 24],< 5
12,CN(C)S(=O)(=O)c1cccc(Cn2c(C(=O)NOCCO)c(Nc3ccc(I)cc3F)c3cnccc32)c1 [Example 47],< 5
13,N#Cc1cccc(Cn2c(C(=O)NOCCO)c(Nc3ccc(I)cc3F)c3cnccc32)c1 [Example 48],< 5
14,Cn1c(C(=O)NOCCO)c(Nc2ccc(Br)cc2Cl)c2cnccc21 [Example 9],< 5
15,N#Cc1ccc(Cn2c(C(=O)NOCCO)c(Nc3ccc(I)cc3F)c3cnccc32)cc1 [Example 44],< 5
16,Cn1c(C(N)=O)c(Nc2ccc(I)cc2F)c2cnccc21 [Example 16],< 5
17,Cn1c(C(=O)NOCC2CC2)c(Nc2ccc(I)cc2F)c2cnccc21 [Example 15],< 5
18,O=C(c1[nH]c2c(F)cncc2c1Nc1ccc(I)cc1F)N1CC[C@@H](O)C1 [Example 51],< 5
19,O=C(NOCCO)c1c(Nc2ccc(I)cc2F)c2cnccc2n1Cc1cccc(C(F)(F)F)c1 [Example 28],< 5
20,CN(C)C(=O)c1ccc(Cn2c(C(=O)NOCCO)c(Nc3ccc(I)cc3F)c3cnccc32)cc1 [Example 30],< 5

row,SMILES,IC50 [µM]
1,"Cn1c(C(=O)NOC[C@H](O)CO)c(Nc2ccc(I)cc2F)c2cnccc21 [Example 5, 3-(2-Fluoro-4-iodo-phenylamino)-1-methyl-1H-pyrrolo[3,2-c]pyridine-2-carboxylic acid ((R)-2,3-dihydroxy-propoxy)-amide]",< 5
2,CSc1ccc(Nc2c(C(=O)NOC(C)(C)CO)n(C)c3ccncc23)c(F)c1 [Example 57],< 5
3,O=C(NOCCO)c1c(Nc2ccc(I)cc2F)c2cnccc2n1Cc1cccnc1 [Example 26],< 5
4,"CSc1ccc(Nc2c(C(=O)NOCCO)n(C3CC3)c3ccncc23)c(F)c1 [Example 62, 1-Cyclopropyl-3-(2-fluoro-4-methylsulfanyl-phenylamino)-1H-pyrrolo[3,2-c]pyridine-2-carboxylic acid (2-hydroxy-ethoxy)-amide]",< 5
5,"O=C(NOCCO)c1c(Nc2ccc(I)cc2F)c2cnccc2n1CC#CCO [Example 65, 3-(2-Fluoro-4-iodo-phenylamino)-1-(4-hydroxy-but-2-ynyl)-1-H-pyrrolo[3,2-c]pyridine-2-carboxylic acid (2-hydroxy-ethoxy)-amide]",< 5
6,"O=C(NOCC(O)CO)c1c(Nc2ccc(I)cc2F)c2cnccc2n1C1CC1 (stereo not shown) [Example 63, 1-Cyclopropyl-3-(2-fluoro-4-iodo-phenylamino)-1H-pyrrolo[3,2-c]pyridine-2-carboxylic acid (2,3-dihydroxy-propoxy)-amide]",< 5
7,O=C(NOCCO)c1c(Nc2ccc(I)cc2F)c2cnccc2n1CC1CC1 [Example 23],< 5
8,O=C(NOCCO)c1[nH]c2c(Cl)cncc2c1Nc1ccc(I)cc1F [Example 34],< 5
9,CS(=O)(=O)c1ccc(Cn2c(C(=O)NOCCO)c(Nc3ccc(I)cc3F)c3cnccc32)cc1 [Example 29],< 5
10,O=C(c1[nH]c2c(F)cncc2c1Nc1ccc(I)cc1F)N1C[C@H](O)C[C@H]1CO [Example 52],< 5
11,CN(C)CCn1c(C(=O)NOCCO)c(Nc2ccc(I)cc2F)c2cnccc21 [Example 32],< 5
12,"O=C(c1[nH]c2ccncc2c1Nc1ccc(I)cc1F)N1CC(O)C1 [Example 70, [3-(2-Fluoro-4-iodo-phenylamino)-1H-pyrrolo[3,2-c]pyridin-2-yl]-(3-hydroxy-azetidin-1-yl)-methanone]",< 5
13,O=C(NOCCO)c1c(Nc2ccc(I)cc2F)c2cnccc2n1Cc1ccc(F)cc1 [Example 33],< 5
14,Cn1c(C(=O)NOCCO)c(Nc2ccc(I)cc2F)c2cncc(Cl)c21 [Example 39],< 5
15,CSc1ccc(Nc2c(C(=O)NOC[C@H](C)O)n(C)c3ccncc23)c(F)c1 [Example 58],< 5
16,"NC(=O)c1c(Nc2ccc(I)cc2F)c2cnccc2n1CCO [Example 18, 3-(2-Fluoro-4-iodo-phenylamino)-1-(2-hydroxy-ethyl)-1H-pyrrolo[3,2-c]pyridine-2-carboxylic acid amide]",< 5
17,CN(C)S(=O)(=O)c1ccc(Cn2c(C(=O)NOCCO)c(Nc3ccc(I)cc3F)c3cnccc32)cc1 [Example 50],< 5
18,CSc1ccc(Nc2c(C(=O)NOCCO)n(C)c3ccncc23)c(F)c1 [Example 56],< 5
19,Cn1c(C(=O)NOCCO)c(Nc2ccc(I)cc2F)c2cncc(F)c21 [Example 37],< 5

# Target: T1, Constitutively activated bRaf mutant (Homo sapiens, UniProt Q02750)
# T1 construct: fused on or other part: GST tag on MEK1
# Experiment: bRaf assay (MEK activation assay), HTRF
# Type: biochemical
# Settings: 200 μM ATP, GST-MEK1 substrate
row,SMILES,IC50 [µM]
1,"Cn1c(C(=O)NOCCO)c(Nc2ccc(I)cc2F)c2cnccc21 [Example 6, 3-(2-Fluoro-4-iodo-phenylamino)-1-methyl-1H-pyrrolo[3,2-c]pyridine-2-carboxylic acid (2-hydroxy-ethoxy)-amide]",< 5
2,"Cn1c(C(=O)NOC[C@H](O)CO)c(Nc2ccc(I)cc2F)c2cnccc21 [Example 5, 3-(2-Fluoro-4-iodo-phenylamino)-1-methyl-1H-pyrrolo[3,2-c]pyridine-2-carboxylic acid ((R)-2,3-dihydroxy-propoxy)-amide]",< 5
